Results published in paper PMC5762634.
These are yes or no findings as the source states them, for the method shown. Some entries that bind do so weakly or less than the wild type.

The chains behind the UniProt entries cited, without tags or fusion partners. Residues count along the entry.
UniProt P51858, residues 1-100: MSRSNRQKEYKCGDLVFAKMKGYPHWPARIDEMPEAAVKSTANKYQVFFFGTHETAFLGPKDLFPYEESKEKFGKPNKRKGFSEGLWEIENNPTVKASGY
UniProt P19338: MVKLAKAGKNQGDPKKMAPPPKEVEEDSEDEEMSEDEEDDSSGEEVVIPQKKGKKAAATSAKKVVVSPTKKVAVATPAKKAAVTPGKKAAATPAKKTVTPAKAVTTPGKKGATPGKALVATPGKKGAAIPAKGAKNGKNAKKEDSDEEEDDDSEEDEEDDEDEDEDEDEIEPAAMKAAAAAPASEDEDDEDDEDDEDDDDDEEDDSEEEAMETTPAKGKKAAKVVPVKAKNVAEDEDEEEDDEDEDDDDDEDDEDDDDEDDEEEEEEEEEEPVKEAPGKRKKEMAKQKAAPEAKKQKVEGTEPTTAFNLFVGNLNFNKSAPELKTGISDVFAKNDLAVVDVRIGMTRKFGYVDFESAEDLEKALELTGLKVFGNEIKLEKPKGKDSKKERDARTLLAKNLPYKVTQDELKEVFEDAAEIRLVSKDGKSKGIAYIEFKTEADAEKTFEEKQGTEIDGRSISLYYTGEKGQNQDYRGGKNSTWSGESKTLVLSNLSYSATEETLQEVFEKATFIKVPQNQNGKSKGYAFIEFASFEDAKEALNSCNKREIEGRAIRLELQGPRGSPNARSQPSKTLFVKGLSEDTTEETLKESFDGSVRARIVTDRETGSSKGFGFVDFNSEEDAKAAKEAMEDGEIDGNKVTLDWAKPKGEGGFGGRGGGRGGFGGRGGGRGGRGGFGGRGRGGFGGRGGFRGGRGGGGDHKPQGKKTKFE

How the values were obtained:
[1] = target: human HDGF PWWP domain (residues 1-100) (human) (UniProt P51858); assay: condition: only monomeric PWWP domain incubated 1:1 with 5-bp SMYD1 DNA; SEC; Superdex-200, size calibration; monomeric PWWP domain incubated 1:1 with 5-bp SMYD1 DNA at 4 °C overnight; 20 mM Tris-HCl, 5 mM EDTA, 5 mM beta-ME, pH 7.5; both purified
[2] = target: human HDGF PWWP domain (residues 1-100) (human) (UniProt P51858); assay: condition: only initial concentration of less than ~1.5 mg/mL; SEC; Superdex-200; apo PWWP domain at an initial concentration of less than ~1.5 mg/mL; 20 mM Tris-HCl, 5 mM EDTA, 5 mM beta-ME, pH 7.5; both purified
[3] = target: human nucleolin (NCL) (human) (UniProt P19338); assay: ELISA; solid-phase binding assay; NCL coated at 10 µg/mL, 4 °C overnight; HDGF or PWWP domain (apo or as complex with 15-bp SMYD1 DNA) reacted at 25 °C for 1.5 h; detected with a PWWP-specific antibody and an HRP-conjugated antibody, OD 450 nm; both purified

“human HDGF PWWP domain (residues 1-100) (from UniProt P51858 1-100) (domain or fragment)” was tested, and the binding [1] was “no binding”, the binding [2] was “no binding” and the binding [3] was “binds”.
